# According to PubChem BioAssay AID540276 (National Center for Advancing Translational Sciences (NCATS), 2011):
# “And” between values parts separate entries of the source, which are not always exact repeats. Equal values may be shown once. Out of some 300,000 compounds screened, about 5,400 (1.8%) were called active. Inconclusive means that the source gave no clear call. Such entries were picked first, then a sample of the others. Calls come from the whole dose curve; tested in HEK293 cells. Potencies beside an inconclusive call are fits to weak or partial responses and may not hold up.
# Test: qHTS for inhibitors of binding or entry into cells for Marburg Virus
# Settings: Marburg virus pseudotyped entry inhibition, cell reporter; activity change, negative = inhibition: at 37.8 µM (top of the series) unless noted
# % is set by controls: 0 for no effect and ±100 for the full control effect; potency is the fitted concentration of half-maximal effect.
SMILES,Potency,"activity change, negative = inhibition"
COc1ccc(/C=C2\CN(Cc3ccccc3)C/C(=C\c3ccc(OC)c(O)c3)C2=O)cc1O,"inconclusive: 3.16 µM [inhibitor, single point]",–
Cc1ccc(C)c(N2CCN(C(=O)c3ccc(CSc4nc5ccncc5[nH]4)cc3)CC2)c1,"inconclusive: 0.731 µM [inhibitor, partial curve, poor fit]",–
CC(=O)c1c(C)oc2c(Cl)cc(NS(=O)(=O)c3cc(C)c(C)cc3C)cc12,–,inactive: -0.669% [at 46.1 µM]
Cc1cc(C)cc(NC(=O)CSc2nccn2Cc2ccco2)c1,"inconclusive: 1.26 µM [inhibitor, single point]",–
O=C(CCC(=O)N1CCN(c2ccccc2F)CC1)c1ccc(F)cc1,–,inactive: 22.2% [at 46.1 µM]
CCCOc1ccc(-c2nonc2NC(=O)COc2ccc(C)cc2)cc1OCCC,"inconclusive: 1.12 µM [activator, partial curve, poor fit]",–
COc1ccc(OCCNC(=O)c2ccc(C)cc2)cc1,"inconclusive: 20 µM [activator, single point]",–
COc1ccc(OCC(=O)OC(C)CN2CCCCC2)cc1 (centres undefined),–,inactive: -14.5%
O=C(Nc1ccc(NC(=S)NC(=O)c2ccco2)cc1)c1ccccc1,"inconclusive: 11.2 µM [activator, partial curve, poor fit]",–
O=C(O)c1ccc2c(=O)n3c(nc2c1)/C(=C/c1ccc(Cl)c([N+](=O)[O-])c1)CC3,"inconclusive: 2.24 µM [inhibitor, partial curve, poor fit]",–
Cc1ccccc1NC(=O)C(C)Sc1nnc(-c2ccncc2)n1CC1CCCO1 (centres undefined),"inconclusive: 35.5 µM [inhibitor, single point]",–
Clc1ccc2c(N3CCCC3)ccnc2c1,–,inactive: -24.6%
CCN1C(=O)[C@H]2[C@H]3[C@H](O)[C@H](O)C/C(=N\OC[C@@H](O)[C@H]4O[C@@H]5OC(C)(C)O[C@@H]5[C@H]4O)[C@@H]3CC[C@H]2C1=O,"inconclusive: 0.0596 µM [inhibitor, partial curve, poor fit]",–
CN(C)c1ccc(S(=O)(=O)NCC(=O)N2CCN(S(=O)(=O)c3cccc(F)c3)CC2)cc1[N+](=O)[O-],"inconclusive: 1.26 µM [activator, partial curve, poor fit]",–
CC(=O)Nc1ccc(C2(c3ccc(NC(C)=O)cc3)NC(=O)c3ccccc32)cc1,"inconclusive: 0.708 µM [inhibitor, single point]",–
CC(=O)NCCc1ccc(S(=O)(=O)N2CCOCC2)cc1,–,inactive: 9.33%
Cc1ccc2nc(-c3ccc(SCC(=O)Nc4nnc(C)s4)nc3)[nH]c2c1,"inconclusive: 22.4 µM [inhibitor, single point]",–
CC1(C)CC(=O)C(C(C2=C(O)CC(C)(C)CC2=O)c2ccc(Cl)c([N+](=O)[O-])c2)C(=O)C1 (centres undefined),–,inactive: -12.4%
CNC(=O)c1c(NC(=O)C(C)C)sc2c1CCC2,–,inactive: -6.19% [at 46.1 µM]
COc1ccccc1Nc1nnc(SCc2nnc(-c3cc(OC)c(OC)c(OC)c3)o2)s1,"inconclusive: 3.55 µM [inhibitor, full curve, poor fit]",–
Nc1ccc(N2CCN(c3ncc(C(F)(F)F)cc3Cl)CC2)c(C(F)(F)F)c1,–,inactive: 6.04% [at 46.1 µM]
COc1ccc(NC(=O)CN(C)S(=O)(=O)c2ccc(Cl)cc2)cc1Cl,–,inactive: -28.5%

# Single records, from the list above.
# CN(C)c1ccc(S(=O)(=O)NCC(=O)N2CCN(S(=O)(=O)c3cccc(F)c3)CC2)cc1[N+](=O)[O-] is entered as Potency: inconclusive: 1.26 µM [activator, partial curve, poor fit]
# CC(=O)c1c(C)oc2c(Cl)cc(NS(=O)(=O)c3cc(C)c(C)cc3C)cc12 is entered as activity change, negative = inhibition: inactive: -0.669% [at 46.1 µM]

# Additional entries.

SMILES,Potency,"activity change, negative = inhibition"
NC(=O)CN1CCCC1=O,"inconclusive: 29.1 µM [activator, partial curve, poor fit] and inconclusive: 4.5 nM [inhibitor, full curve, poor fit]",–
S=C(NCCc1c[nH]c2ccccc12)NC1CCCC1,–,inactive: -10.2% [at 46.1 µM]
CC(C)CC(N=Cc1c(O)c2ccccc2oc1=O)C(=O)O (centres undefined),–,inactive: -12.1% [at 46.1 µM]
CCC(C)[C@H](NC(=O)OC(C)(C)C)C(=O)N/N=C/c1cccc2nccnc12 (some centres undefined),"inconclusive: 0.58 µM [inhibitor, partial curve]",–
CCOC(=O)c1c(NC(=O)c2cc(-c3ccc(O)cc3)on2)sc(C(C)=O)c1C,"inconclusive: 7.31 µM [activator, partial curve]",–
N#Cc1cccc(Nc2c3c(nc4ccccc24)CCCC3)c1,"inconclusive: 11.6 µM [inhibitor, single point]",–
Cc1sc2ncnc(N3CCC(C(=O)Nc4ccccc4C(C)(C)C)CC3)c2c1C,"inconclusive: 4.47 µM [inhibitor, partial curve]",–
COc1cccc(N2CCN(S(=O)(=O)c3ccc(-n4cnnn4)cc3)CC2)c1,inactive,–
O=c1cc(CCl)nc(Cc2c(Cl)cccc2Cl)[nH]1,"inconclusive: 35.5 µM [inhibitor, partial curve, poor fit]",–
Cc1cc(C(=O)NC(=S)Nc2cccc(NC(=O)C(C)C)c2)ccc1[N+](=O)[O-],–,inactive: -6.06%
O=C(C1CCCCC1)N(Cc1nc2sc3c(c2c(=O)[nH]1)CCCC3)Cc1cccs1,"inconclusive: 35.5 µM [inhibitor, single point]",–
CCOc1ccc(NCc2cc3c(C(C)(C)C)nn(-c4ccccc4)c3[nH]c2=O)cc1,"inconclusive: 18.3 µM [inhibitor, single point]",–
COCCCNC(=S)N1CCN(c2ccccc2)CC1,"inconclusive: 31.6 µM [activator, single point]",–
CCCCN(C(=O)Cc1coc2cc(C)c(C)cc12)c1c(N)n(Cc2ccccc2)c(=O)[nH]c1=O,"inconclusive: 17.8 µM [inhibitor, single point]",–
Cc1ccc(N=C2NC(=O)/C(=C/c3cccn3C)S2)c(C)c1,"inconclusive: 20 µM [inhibitor, partial curve, poor fit]",–
Cc1onc(-c2c(F)cccc2Cl)c1C(=O)N1CCSCC1,–,inactive: 10.4% [at 46.1 µM]
COc1ccc(-c2cc(C(F)(F)F)nc(-n3ccnc3)n2)cc1,"inconclusive: 6.31 µM [inhibitor, single point]",–
CC(C)CNc1ccc2c(c1)OC[C@H](CC(C)C)NS2(=O)=O,"inconclusive: 4.45 µM [activator, partial curve, poor fit]",–
Cc1ccc(N=C2NC(=O)/C(=C/c3cccs3)S2)cc1C,"inconclusive: 0.231 µM [activator, single point]",–
CS(=O)(=O)N(CC(=O)NCC1CCCO1)Cc1ccc(Cl)cc1 (centres undefined),"inconclusive: 6.31 µM [inhibitor, single point]",–
Cc1ccc(S(=O)(=O)N2CCN(C(=O)CCCOc3ccc(Cl)cc3C)CC2)cc1,"inconclusive: 35.5 µM [inhibitor, single point]",–
CCn1c(=O)n(CC)c2cc(S(=O)(=O)NCCOc3ccccc3)c(C)cc21,"inconclusive: 16.4 µM [inhibitor, partial curve]",–

SMILES,Potency,"activity change, negative = inhibition"
Cc1ccc(NC(=O)N(O)C2CCCCC2C#N)cc1 (centres undefined),–,inactive: 25.4%
CC(=O)c1cccc(NC(=O)CSc2nnc(C(C)N(C)C)n2-c2ccc(F)cc2)c1 (centres undefined),–,inactive: -22.9% [at 46.1 µM]
CC(=O)COc1ccc2c(-c3ccccc3)cc(=O)oc2c1,"inconclusive: 5.62 µM [activator, full curve, poor fit]",–
COc1ccccc1CNC(=O)COC(=O)CCC(=O)c1cccs1,"inconclusive: 35.5 µM [activator, single point]",–
O=C(Nc1ccc(S(=O)(=O)NCC2CCCO2)cc1)c1ccc(Cl)cc1[N+](=O)[O-] (centres undefined),"inconclusive: 11.2 µM [inhibitor, partial curve, poor fit]",–
COC(=O)c1c(NC(=O)c2ccoc2C)sc(C)c1C,"inconclusive: 6.31 µM [inhibitor, partial curve, poor fit]",–
O=S(=O)(c1ccc(Cl)cc1)c1nc(-c2ccco2)oc1N1CCCCC1,"inconclusive: 17.8 µM [inhibitor, partial curve, poor fit]",–
Cc1cc(C)c(S(=O)(=O)N2CCCCC2)cc1N(C)S(=O)(=O)c1ccc(Cl)cc1,"inconclusive: 12.6 µM [inhibitor, partial curve, poor fit]",–
O=C(c1ccco1)N1CCN(Cc2cc(=O)c(OCc3cccc(F)c3)co2)CC1,"inconclusive: 11.2 µM [activator, partial curve]",–
Nn1c(SCc2cccc(C(F)(F)F)c2)nnc1-c1ccco1,"inconclusive: 29.1 µM [inhibitor, partial curve, poor fit]",–
CCc1ccccc1NC(=O)c1sc2nc3c(cc2c1N)CN(Cc1ccccc1)CC3,"inconclusive: 11.2 µM [inhibitor, partial curve, poor fit]",–
O=C(CN1C(=O)NC2(CCCC2)C1=O)Nc1ccccc1-c1ccccc1,"inconclusive: 1.26 µM [inhibitor, partial curve, poor fit]",–
Cc1cc(OCC(=O)NCCN2CCOCC2)cc(C)c1Cl,"inconclusive: 0.562 µM [activator, full curve, poor fit]",–
CCOc1ccc(C(C)(C)C)cc1S(=O)(=O)N1CC(C)OC(C)C1 (centres undefined),–,inactive: -25.6%
O=[N+]([O-])c1cccc(N=Nc2ccc(O)cc2O)c1,active: 2.82 µM,–
CCC(C)NS(=O)(=O)c1ccc(S(=O)(=O)N(CCc2ccc(OC)c(OC)c2)Cc2cccs2)cc1 (centres undefined),active: 3.55 µM,–
COc1ccc(C)cc1-n1nnnc1SCc1nc2ccccc2c(=O)[nH]1,"inconclusive: 6.31 µM [inhibitor, single point]",–
Cn1c(=O)oc2cc(S(=O)(=O)N3CCN(c4ccc(F)cc4)CC3)ccc21,"inconclusive: 1.12 µM [inhibitor, partial curve, poor fit]",–
N/C(=N\OC(=O)c1csnn1)c1ccc(C(F)(F)F)cc1,–,inactive: 0% [at 14.2 µM]
CC1CCC/C(=N\NC(=O)COc2ccc(Cl)cc2Cl)C1 (centres undefined),"inconclusive: 0.708 µM [inhibitor, partial curve, poor fit]",–
